The target of this assay is human CD3 antigen complex (human) (UniProt P07766+P09693+P04234+P20963). Kind of assay: FACS competition on human T-cell blasts, competitor FITC UCHT-1.

The chains behind the UniProt entries cited, without tags or fusion partners. Where a name states a change or a piece, a line headed by the entry shows the natural chain unless it says otherwise.
UniProt P07766: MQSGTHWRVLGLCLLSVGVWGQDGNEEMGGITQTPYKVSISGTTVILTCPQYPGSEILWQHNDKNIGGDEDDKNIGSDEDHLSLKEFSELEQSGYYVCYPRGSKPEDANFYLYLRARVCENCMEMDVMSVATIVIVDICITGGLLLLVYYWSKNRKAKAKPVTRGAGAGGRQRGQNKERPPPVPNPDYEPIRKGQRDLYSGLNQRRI
UniProt P09693: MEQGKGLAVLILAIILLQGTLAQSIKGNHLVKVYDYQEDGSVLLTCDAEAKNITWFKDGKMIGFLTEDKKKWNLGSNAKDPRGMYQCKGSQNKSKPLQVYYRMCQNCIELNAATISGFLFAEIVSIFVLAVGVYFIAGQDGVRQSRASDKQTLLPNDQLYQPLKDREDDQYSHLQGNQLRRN
UniProt P04234: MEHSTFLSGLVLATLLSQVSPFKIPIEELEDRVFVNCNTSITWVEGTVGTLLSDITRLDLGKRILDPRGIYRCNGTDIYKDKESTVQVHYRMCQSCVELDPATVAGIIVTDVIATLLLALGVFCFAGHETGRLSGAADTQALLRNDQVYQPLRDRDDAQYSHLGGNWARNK
UniProt P20963: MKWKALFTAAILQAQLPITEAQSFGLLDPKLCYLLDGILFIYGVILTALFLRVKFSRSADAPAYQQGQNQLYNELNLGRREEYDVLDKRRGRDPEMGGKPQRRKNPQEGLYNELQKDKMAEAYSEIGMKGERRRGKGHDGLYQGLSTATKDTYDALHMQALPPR

These are yes or no findings as the source states them, for the method shown. Some entries that bind do so weakly or less than the wild type.

Results on 1 molecule are retold here after patent US20040006216A1.

B1: YTH 12.5.14.2 rat IgG2b monoclonal antibody specific for the CD3 antigen complex (antibody, V domains shown)
VH: QVQLQESGGGLVQPGRSMKLSCAASGFTFSSFPMAWVRQAPKKGLEWVATISTSGGRTYYRDSVKGRFTISRDNGKSILYLQMNSLRSEDTATYYCSRFRQYSGGFDYWGQGTTVTVSS
VL: QAVVTQANSVSTSLGSTVKLSCTLSSGNIENNYVHWYQLYEGRSPTTMIYDDDKRPDGVPDRFSGSIDRSSNSAFLTIHNVAIEDEAIYFCHSYVSSFNVFGGGTKLTVLR
In the case of B1, the binding result is “binds”.
